We go through 21 compounds from PubChem BioAssay AID330 (DTP/NCI, 2004).

The subject of the assay is P388 leukemia ip, CD2F1 mice, survival T/C. Put plainly: NCI In Vivo Anticancer Drug Screen. Data for tumor model P388 Leukemia (intraperitoneal) in CD2F1 (CDF1) mice. The note with it: T/C endpoint: median survival time, higher T/C = longer survival.
Where [1] appears, read: dose: 200.0 mg/kg/injection, schedule: Q01DX005 (ip), vehicle: saline with Tween-80.
The mark [2] stands for this setting: dose: 50.0 mg/kg/injection, schedule: Q01DX009 (ip), vehicle: saline with Tween-80.
The mark [3] stands for this setting: dose: 100.0 mg/kg/injection, schedule: Q01DX009 (ip), vehicle: saline with Tween-80.
Where [4] appears, read: dose: 200.0 mg/kg/injection, schedule: Q01DX009 (ip), vehicle: saline with Tween-80.

The list is a part of this screen's results and no random one: it gathers tests that were run many times, whatever their T/C, doses with no T/C, and many T/C values between a quarter and a half above the control. Other doses and runs of a compound stand elsewhere. T/C gives the treated animals as a percentage of the vehicle group. Some doses have a count of surviving animals in place of a T/C: the source files T/C as zero there, which appears to mark a toxic dose or a test without result, not a measured value. Some survivor counts are full or nearly so, which does not show that the dose was tolerated: the source hardly ever lists a survival T/C far under the control, and the zero likely stands for such cases as well. Counts of survivors are from the toxicity check (mostly the fifth day) where no day follows; animals may have died later. Schedules are NCI's codes, taken here to give the interval after Q, in days (D) or hours (H), and the number of doses after X. Some doses were run more than once; the values are given in rising order. For survival time, this PubChem deposit counts one and a half times the control or more as active, and values a quarter to a half above the control carry no call in these data; other NCI protocols may use other cut-offs. Some T/C values are followed by the survivors on the day toxicity was checked, most often the fifth; without a count, all were alive then.

As to `CCOC(=O)C(N)CSC(c1ccccc1)(c1ccccc1)c1ccccc1` (configuration not stated), the survivor count runs as follows: (dose: 3.13 mg/kg/injection, schedule: Q01DX009 (ip), vehicle: water) 6 of 6; (dose: 6.25 mg/kg/injection, schedule: Q01DX009 (ip), vehicle: water) 6 of 6; (dose: 100.0 mg/kg/injection, schedule: Q01DX009 (oral), vehicle: water) 6 of 6; (dose: 200.0 mg/kg/injection, schedule: Q01DX009 (ip), vehicle: water) 3 of 6; (dose: 200.0 mg/kg/injection, schedule: Q01DX009 (oral), vehicle: water) 6 of 6; (dose: 300.0 mg/kg/injection, schedule: Q04DX003 (ip), vehicle: saline) 5 of 6. Moreover, the survivor count (dose: 400.0 mg/kg/injection, schedule: Q01DX009 (oral), vehicle: water) is reported as 6 of 6. The T/C is 133 and 135 % of control (dose: 25.0 mg/kg/injection, schedule: Q01DX009 (ip), vehicle: water); 146 % of control (dose: 50.0 mg/kg/injection, schedule: Q01DX009 (ip), vehicle: water); 126 % of control (dose: 50.0 mg/kg/injection, schedule: Q01DX009 (oral), vehicle: water); 145 % of control (dose: 132.0 mg/kg/injection, schedule: Q04DX003 (ip), vehicle: saline).

`O=C(Nc1cccc2ccccc12)c1cc2c(cc1Br)OCO2`: the survivor count (dose: 100.0 mg/kg/injection, schedule: Q01DX009 (ip), vehicle: distilled water + Tween-80) was 6 of 6.

Regarding `CCC1SC(=S)NC1=O` (configuration not stated), the survivor count under setting [1] was 3 of 5.

Regarding `COC1=CC[C@H]2[C@H]3Cc4ccc(OC)c5c4[C@@]2(CCN3CC2CC2)C1O5` (some centres not stated), the survivor count (dose: 400.0 mg/kg/injection, schedule: Q04DX002 (ip), vehicle: Klucel (hydroxypropylcellulose) (HPC)) was 4 of 6.

Turning to `[Cl][Ge]([Cl])([Cl])[c]1ccccc1`, the survivor count (dose: 200.0 mg/kg/injection, schedule: Q01DX009 (ip), vehicle: saline) is 0 of 6.

As to `CCn1c2ccccc2c2c3c(NCCCN(C)C)cc(C)nc3ccc21`, the survivor count (dose: 45.0 mg/kg/injection, schedule: Q01DX009 (ip), vehicle: saline with Tween-80) is listed as 5 of 6; the survivor count (dose: 90.0 mg/kg/injection, schedule: Q01DX009 (ip), vehicle: saline with Tween-80) is given as 2 of 6; the survivor count (dose: 180.0 mg/kg/injection, schedule: Q01DX009 (ip), vehicle: saline with Tween-80) is 0 of 6.

As for `COc1ccc2c(c1)CC(=CO)CC2=O.COc1ccc2c(c1)CC/C(=C/O)C2=O.[Cu]`, the survivor count is 6 of 6 under setting [2] and 6 of 6 (dose: 100.0 mg/kg/injection, schedule: Q04DX003 (ip), vehicle: saline with Tween-80).

Take `Nc1nc([Se])c2ncn(C3OC(CO)C(O)C3O)c2n1` (configuration not stated): the T/C is, setting by setting: (dose: 1.0 mg/kg/injection, schedule: Q01DX009 (ip), vehicle: saline) 136 % of control; (dose: 2.0 mg/kg/injection, schedule: Q01DX009 (ip), vehicle: saline) 138 and 142 % of control; (dose: 2.0 mg/kg/injection, schedule: Q01DX009 (ip), vehicle: water) 134 and 136 % of control; (dose: 3.12 mg/kg/injection, schedule: Q01DX009 (ip), vehicle: saline) 144 % of control; (dose: 4.0 mg/kg/injection, schedule: Q01DX009 (ip), vehicle: saline) 145 % of control; (dose: 4.0 mg/kg/injection, schedule: Q01DX009 (ip), vehicle: water) 136 and 140 % of control. The T/C is 148 % of control (dose: 8.0 mg/kg/injection, schedule: Q01DX009 (ip), vehicle: saline) and 139 % of control (dose: 8.0 mg/kg/injection, schedule: Q01DX009 (ip), vehicle: water). Further, for the setting “dose: 64.0 mg/kg/injection, schedule: Q01DX009 (ip), vehicle: saline”, the survivor count is given as 2 of 6.

Consider `C[N+](C)(Cc1ccc(Br)cc1)C1c2ccccc2-c2ccccc21`, for which the survivor count is given as 0 of 6 (dose: 100.0 mg/kg/injection, schedule: Q01DX009 (ip), vehicle: Klucel (hydroxypropylcellulose) (HPC)) and 0 of 6 (dose: 200.0 mg/kg/injection, schedule: Q01DX009 (ip), vehicle: Klucel (hydroxypropylcellulose) (HPC)).

As to `Cl[C](Cl)(Cl)[Hg][C](Cl)(Cl)Cl`, the survivor count reads like this: (dose: 6.25 mg/kg/injection, schedule: Q01DX009 (ip), vehicle: saline with Tween-80) 2 of 6; (dose: 12.5 mg/kg/injection, schedule: Q01DX009 (ip), vehicle: saline with Tween-80) 0 of 6 and 2 of 6; (dose: 25.0 mg/kg/injection, schedule: Q01DX009 (ip), vehicle: saline with Tween-80) 0 of 6; under setting [2], 0 of 6; under setting [3], 0 of 6; under setting [4], 0 of 6.

As to `CC1CCC(n2cnc3c(Cl)ncnc32)O1` (configuration not stated), the survivor count (dose: 800.0 mg/kg/injection, schedule: Q01DX005 (ip), vehicle: Klucel (hydroxypropylcellulose) (HPC)) is reported as 0 of 6.

Take `CCOC(=O)c1ccc(NC(=O)Nc2ccccc2OC)cc1`: the survivor count by setting is: (dose: 30.0 mg/kg/injection, schedule: Q01DX005 (ip), vehicle: Klucel (hydroxypropylcellulose) (HPC)) 5 of 6; (dose: 60.0 mg/kg/injection, schedule: Q01DX005 (ip), vehicle: Klucel (hydroxypropylcellulose) (HPC)) 6 of 6; (dose: 120.0 mg/kg/injection, schedule: Q01DX005 (ip), vehicle: Klucel (hydroxypropylcellulose) (HPC)) 6 of 6.

In the case of `O=C1CC(SC(=S)C2CCCC2=O)C(=O)O1` (configuration not stated), the survivor count reads like this: under setting [2], 3 of 6; under setting [3], 2 of 6 and 4 of 6.

For `[CH3][Ga][CH3].[CH3][Ga][CH3].[CH3][Ga][CH3].[CH3][Ga][CH3].[OH3+].[OH3+].[OH3+].[OH3+]`, the survivor count by setting is: (dose: 20.0 mg/kg/injection, schedule: Q04DX003 (ip), vehicle: saline with Tween-80) 0 of 6; (dose: 100.0 mg/kg/injection, schedule: Q04DX003 (ip), vehicle: saline sonified) 0 of 6; (dose: 200.0 mg/kg/injection, schedule: Q04DX003 (ip), vehicle: saline sonified) 0 of 6; (dose: 400.0 mg/kg/injection, schedule: Q04DX003 (ip), vehicle: saline sonified) 0 of 6.

With `N#CC(C#N)=C/C=C/c1cccc([N+](=O)[O-])c1`, the T/C is, setting by setting: (dose: 12.5 mg/kg/injection, schedule: Q01DX009 (ip), vehicle: Klucel (hydroxypropylcellulose) (HPC)) 127 and 128 % of control; (dose: 18.0 mg/kg/injection, schedule: Q01DX009 (ip), vehicle: Klucel (hydroxypropylcellulose) (HPC)) 132 % of control. In addition, under “dose: 50.0 mg/kg/injection, schedule: Q01DX009 (ip), vehicle: Klucel (hydroxypropylcellulose) (HPC)”, the survivor count is 2 of 6.

For the compound `O=C(Nc1ccccc1)c1csc(-c2csc(CCNC(=O)C(F)(F)F)n2)n1`, the survivor count (dose: 50.0 mg/kg/injection, schedule: Q01DX009 (ip), vehicle: distilled water + Tween-80) was 6 of 6.

Regarding `CN(/N=C(C#N)/C(N)=N/N)c1ccccc1`, the survivor count (dose: 400.0 mg/kg/injection, schedule: Q04DX002 (ip), vehicle: saline with Tween-80) is given as 1 of 6.

`CCOC1OCN(C(C)C)CC1(C)C` (configuration not stated): the T/C is, setting by setting: under setting [2], 130 % of control; under setting [3], 125 % of control; under setting [4], 125 % of control [4 of 6 alive].

For the compound `Cc1cc2c(cc1C)C(=O)C(CN1CCCCC1)CO2` (configuration not stated), the survivor count (dose: 400.0 mg/kg/injection, schedule: Q01DX001 (ip), vehicle: saline) is on record as 0 of 6.

Consider `c1ccc(N=c2cnc3c(ccc4ccccc43)o2)cc1`, for which the survivor count was 3 of 6 (dose: 30.0 mg/kg/injection, schedule: Q01DX005 (ip), vehicle: saline with Tween-80); 4 of 6 (dose: 60.0 mg/kg/injection, schedule: Q01DX005 (ip), vehicle: saline with Tween-80); 2 of 6 (dose: 120.0 mg/kg/injection, schedule: Q01DX005 (ip), vehicle: saline with Tween-80); 0 of 6 (dose: 240.0 mg/kg/injection, schedule: Q01DX005 (ip), vehicle: saline with Tween-80).

With `COC(=O)c1ccccc1SSCCN`, the survivor count (dose: 100.0 mg/kg/injection, schedule: Q01DX005 (ip), vehicle: saline with Tween-80) is reported as 4 of 5 and the survivor count under setting [1] was 0 of 5.
